According to the supplement of paper PMC10849652:
Some of the results follow.

Amino acid sequences for entries named in this document (tags omitted). A change or cut given only in a name is not applied to a line headed by its entry.
ZNF654, A0A1B0GWA0, UniProt A0A1B0GWA0, whole entry, looked up: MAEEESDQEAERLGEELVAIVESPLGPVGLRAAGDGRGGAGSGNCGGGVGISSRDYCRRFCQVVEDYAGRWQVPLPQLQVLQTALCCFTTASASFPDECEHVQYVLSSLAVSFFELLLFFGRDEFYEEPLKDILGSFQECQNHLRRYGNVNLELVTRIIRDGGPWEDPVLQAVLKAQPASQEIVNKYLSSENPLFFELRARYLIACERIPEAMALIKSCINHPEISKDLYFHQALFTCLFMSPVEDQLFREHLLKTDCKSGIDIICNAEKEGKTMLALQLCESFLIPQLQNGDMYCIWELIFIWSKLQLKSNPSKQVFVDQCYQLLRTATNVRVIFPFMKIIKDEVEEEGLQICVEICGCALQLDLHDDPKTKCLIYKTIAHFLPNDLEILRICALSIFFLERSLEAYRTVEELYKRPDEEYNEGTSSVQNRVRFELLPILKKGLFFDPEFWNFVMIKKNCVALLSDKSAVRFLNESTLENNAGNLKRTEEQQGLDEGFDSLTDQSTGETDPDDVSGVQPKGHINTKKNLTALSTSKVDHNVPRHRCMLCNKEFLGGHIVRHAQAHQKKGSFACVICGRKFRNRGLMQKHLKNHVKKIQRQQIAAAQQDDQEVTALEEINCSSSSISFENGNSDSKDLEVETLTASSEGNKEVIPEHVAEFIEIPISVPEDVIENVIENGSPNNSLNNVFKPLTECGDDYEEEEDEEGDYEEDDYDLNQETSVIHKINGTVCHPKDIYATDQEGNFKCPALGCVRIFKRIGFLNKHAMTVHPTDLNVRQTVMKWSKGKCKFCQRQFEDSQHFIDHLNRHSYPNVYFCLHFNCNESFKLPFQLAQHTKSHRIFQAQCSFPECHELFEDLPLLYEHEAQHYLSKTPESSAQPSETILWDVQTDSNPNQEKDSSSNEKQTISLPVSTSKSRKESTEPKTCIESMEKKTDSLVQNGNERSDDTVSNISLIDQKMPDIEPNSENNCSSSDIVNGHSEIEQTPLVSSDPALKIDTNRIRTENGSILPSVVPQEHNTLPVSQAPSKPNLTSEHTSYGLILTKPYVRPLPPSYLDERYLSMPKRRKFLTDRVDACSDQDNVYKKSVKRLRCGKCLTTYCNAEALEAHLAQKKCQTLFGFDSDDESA
UniProt Q8IYB9: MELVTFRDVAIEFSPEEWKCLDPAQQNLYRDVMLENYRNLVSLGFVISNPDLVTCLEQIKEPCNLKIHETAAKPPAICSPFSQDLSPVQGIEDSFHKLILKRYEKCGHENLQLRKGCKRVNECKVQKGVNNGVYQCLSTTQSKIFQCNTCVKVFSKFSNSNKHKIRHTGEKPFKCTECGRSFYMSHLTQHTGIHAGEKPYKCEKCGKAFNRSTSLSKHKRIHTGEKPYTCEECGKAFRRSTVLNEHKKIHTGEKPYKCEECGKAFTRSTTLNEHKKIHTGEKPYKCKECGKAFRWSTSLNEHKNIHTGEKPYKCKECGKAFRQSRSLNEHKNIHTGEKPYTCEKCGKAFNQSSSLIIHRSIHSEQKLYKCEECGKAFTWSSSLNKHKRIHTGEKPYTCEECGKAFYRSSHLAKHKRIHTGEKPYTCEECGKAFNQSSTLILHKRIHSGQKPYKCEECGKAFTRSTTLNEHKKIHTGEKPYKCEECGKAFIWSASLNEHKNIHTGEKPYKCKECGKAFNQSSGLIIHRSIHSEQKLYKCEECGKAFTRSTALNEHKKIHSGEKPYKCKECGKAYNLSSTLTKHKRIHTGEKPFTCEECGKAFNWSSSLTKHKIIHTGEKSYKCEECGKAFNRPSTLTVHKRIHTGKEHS
UniProt Q8IZC7: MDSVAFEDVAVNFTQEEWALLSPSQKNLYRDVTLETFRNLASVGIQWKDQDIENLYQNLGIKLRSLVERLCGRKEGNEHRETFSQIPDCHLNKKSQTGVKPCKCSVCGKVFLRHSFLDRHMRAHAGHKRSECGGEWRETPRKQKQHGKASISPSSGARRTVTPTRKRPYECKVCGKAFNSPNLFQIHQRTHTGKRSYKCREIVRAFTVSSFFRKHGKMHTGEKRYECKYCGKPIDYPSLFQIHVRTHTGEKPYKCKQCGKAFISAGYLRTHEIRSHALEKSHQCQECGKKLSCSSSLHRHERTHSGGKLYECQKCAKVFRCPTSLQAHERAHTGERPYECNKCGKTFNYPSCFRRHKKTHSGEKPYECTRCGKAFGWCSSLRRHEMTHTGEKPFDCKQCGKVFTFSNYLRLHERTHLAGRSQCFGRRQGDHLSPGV
UniProt Q9BU19: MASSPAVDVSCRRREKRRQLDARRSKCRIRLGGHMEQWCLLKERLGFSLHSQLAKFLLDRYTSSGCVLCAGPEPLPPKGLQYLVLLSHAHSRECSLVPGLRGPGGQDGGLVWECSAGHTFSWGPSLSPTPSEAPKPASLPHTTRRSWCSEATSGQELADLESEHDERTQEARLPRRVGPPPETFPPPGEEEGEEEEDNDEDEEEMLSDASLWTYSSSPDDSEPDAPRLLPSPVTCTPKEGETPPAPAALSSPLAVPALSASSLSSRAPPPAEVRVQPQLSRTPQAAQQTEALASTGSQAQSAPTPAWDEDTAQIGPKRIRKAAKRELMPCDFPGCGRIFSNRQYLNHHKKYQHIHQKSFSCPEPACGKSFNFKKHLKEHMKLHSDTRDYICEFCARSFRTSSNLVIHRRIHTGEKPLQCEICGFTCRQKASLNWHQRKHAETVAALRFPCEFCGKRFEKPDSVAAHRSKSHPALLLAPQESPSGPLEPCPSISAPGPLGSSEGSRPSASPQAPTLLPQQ
UniProt Q9UL40: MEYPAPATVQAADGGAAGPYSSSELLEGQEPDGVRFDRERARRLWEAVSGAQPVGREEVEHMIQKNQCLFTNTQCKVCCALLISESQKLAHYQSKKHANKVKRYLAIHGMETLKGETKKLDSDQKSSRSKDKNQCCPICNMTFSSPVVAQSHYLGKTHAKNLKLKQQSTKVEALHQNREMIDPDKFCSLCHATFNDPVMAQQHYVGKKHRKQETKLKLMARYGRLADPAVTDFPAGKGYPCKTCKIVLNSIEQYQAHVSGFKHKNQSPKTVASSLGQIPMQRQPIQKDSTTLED
UniProt P59923: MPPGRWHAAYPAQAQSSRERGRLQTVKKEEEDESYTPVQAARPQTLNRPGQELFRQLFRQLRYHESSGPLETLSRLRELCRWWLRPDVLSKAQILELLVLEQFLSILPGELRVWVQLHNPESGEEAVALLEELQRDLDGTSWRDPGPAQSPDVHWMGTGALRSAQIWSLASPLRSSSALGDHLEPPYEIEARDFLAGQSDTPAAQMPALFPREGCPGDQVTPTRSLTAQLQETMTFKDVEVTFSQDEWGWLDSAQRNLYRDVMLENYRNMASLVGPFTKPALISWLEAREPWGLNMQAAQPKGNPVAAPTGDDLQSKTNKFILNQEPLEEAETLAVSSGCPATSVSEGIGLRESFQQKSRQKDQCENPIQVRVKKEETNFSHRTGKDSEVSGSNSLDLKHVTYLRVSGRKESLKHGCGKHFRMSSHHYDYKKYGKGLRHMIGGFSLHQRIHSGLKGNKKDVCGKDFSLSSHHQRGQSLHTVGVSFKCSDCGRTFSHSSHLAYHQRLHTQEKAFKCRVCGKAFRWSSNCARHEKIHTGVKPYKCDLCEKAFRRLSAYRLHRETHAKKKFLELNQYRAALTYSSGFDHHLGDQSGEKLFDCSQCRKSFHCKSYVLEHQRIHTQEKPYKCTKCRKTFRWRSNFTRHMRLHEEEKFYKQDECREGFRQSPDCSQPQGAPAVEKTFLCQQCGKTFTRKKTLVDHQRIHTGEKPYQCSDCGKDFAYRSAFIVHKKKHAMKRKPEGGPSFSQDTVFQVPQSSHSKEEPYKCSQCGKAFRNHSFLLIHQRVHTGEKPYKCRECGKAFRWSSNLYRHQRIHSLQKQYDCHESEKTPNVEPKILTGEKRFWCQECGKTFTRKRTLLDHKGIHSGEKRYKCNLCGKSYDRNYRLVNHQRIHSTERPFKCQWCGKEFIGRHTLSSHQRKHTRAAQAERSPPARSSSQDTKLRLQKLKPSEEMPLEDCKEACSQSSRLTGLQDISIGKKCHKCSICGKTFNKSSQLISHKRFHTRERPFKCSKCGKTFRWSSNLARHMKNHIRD
UniProt J3KR51, whole entry, looked up: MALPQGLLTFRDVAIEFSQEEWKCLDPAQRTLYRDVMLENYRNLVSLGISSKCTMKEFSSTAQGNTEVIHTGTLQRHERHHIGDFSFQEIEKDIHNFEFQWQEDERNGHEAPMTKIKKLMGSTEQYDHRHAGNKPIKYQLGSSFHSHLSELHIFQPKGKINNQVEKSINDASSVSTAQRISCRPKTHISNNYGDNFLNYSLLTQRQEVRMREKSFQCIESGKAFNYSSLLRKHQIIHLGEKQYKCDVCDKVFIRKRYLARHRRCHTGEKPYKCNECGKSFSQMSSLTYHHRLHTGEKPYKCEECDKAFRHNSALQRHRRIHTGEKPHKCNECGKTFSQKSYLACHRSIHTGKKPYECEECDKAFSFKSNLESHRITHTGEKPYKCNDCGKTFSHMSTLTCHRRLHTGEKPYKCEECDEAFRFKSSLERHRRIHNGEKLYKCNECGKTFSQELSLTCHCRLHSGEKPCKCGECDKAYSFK
UniProt Q96BR6: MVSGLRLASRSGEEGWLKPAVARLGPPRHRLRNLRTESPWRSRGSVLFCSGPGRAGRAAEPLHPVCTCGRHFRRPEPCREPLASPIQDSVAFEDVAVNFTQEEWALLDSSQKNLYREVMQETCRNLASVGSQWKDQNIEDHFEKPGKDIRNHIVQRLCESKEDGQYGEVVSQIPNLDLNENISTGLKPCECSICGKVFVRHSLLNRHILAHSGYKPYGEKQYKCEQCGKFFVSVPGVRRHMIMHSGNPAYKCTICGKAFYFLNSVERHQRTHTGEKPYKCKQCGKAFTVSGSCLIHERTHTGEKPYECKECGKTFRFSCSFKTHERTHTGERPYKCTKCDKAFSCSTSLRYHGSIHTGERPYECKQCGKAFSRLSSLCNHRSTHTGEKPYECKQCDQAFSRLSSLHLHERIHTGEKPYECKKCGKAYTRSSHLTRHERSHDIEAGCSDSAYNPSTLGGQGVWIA
UniProt Q8TAU3: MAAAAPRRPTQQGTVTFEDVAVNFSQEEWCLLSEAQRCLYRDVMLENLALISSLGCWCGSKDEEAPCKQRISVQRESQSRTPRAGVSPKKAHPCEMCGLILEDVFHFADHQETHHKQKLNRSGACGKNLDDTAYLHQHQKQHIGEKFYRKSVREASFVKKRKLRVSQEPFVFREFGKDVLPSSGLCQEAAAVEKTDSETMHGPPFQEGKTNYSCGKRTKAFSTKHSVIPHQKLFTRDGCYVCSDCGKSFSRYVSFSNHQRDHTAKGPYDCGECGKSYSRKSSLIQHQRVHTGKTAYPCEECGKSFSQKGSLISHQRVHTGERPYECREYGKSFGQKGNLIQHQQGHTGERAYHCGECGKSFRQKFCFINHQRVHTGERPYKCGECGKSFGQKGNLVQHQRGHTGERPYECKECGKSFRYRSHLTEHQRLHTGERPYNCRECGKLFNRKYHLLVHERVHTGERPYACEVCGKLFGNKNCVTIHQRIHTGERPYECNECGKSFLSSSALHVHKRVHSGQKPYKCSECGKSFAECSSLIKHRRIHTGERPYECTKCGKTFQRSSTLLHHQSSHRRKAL
UniProt Q7L3S4: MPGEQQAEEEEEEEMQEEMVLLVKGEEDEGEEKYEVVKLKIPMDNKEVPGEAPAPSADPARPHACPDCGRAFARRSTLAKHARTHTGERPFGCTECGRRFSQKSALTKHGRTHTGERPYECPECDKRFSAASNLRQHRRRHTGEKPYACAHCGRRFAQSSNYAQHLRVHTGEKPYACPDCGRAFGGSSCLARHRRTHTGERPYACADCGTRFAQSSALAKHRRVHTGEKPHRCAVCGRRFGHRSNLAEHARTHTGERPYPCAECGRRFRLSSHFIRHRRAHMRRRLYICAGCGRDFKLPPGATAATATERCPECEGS
UniProt Q96MX3: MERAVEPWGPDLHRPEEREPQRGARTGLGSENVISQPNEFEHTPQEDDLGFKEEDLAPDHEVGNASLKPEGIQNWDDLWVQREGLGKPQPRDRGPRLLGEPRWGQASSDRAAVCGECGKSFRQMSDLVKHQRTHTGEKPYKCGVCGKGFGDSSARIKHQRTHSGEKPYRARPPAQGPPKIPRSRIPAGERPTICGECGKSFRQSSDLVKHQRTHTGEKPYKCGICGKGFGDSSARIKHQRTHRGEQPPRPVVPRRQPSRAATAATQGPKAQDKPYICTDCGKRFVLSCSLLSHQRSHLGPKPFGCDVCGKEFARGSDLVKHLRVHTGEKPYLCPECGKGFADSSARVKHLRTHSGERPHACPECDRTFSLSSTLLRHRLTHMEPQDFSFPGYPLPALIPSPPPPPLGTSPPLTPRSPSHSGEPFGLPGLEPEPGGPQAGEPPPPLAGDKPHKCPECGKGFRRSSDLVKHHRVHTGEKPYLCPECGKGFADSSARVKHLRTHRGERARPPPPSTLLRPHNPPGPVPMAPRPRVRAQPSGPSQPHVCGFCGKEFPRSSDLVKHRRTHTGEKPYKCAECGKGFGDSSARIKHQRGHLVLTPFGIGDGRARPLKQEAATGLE

Tests used:
Assay in all cases: log2 fold change, soluble protein after heating vs DMSO (PISA); higher = thermal stabilisation; K562 lysate, 10 uM; active = over 0.2 and 3.5 SD of the protein, either way, in both replicates (recomputed)
vemurafenib = compound: CCCS(=O)(=O)Nc1ccc(F)c(C(=O)c2c[nH]c3ncc(-c4ccc(Cl)cc4)cc23)c1F [vemurafenib]
In short: (§1)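 Thermal stability, expressed as log-two fold change relative to solvent controls, is given from duplicates. Crude K562 extract in PBS pH 7.4 with 1 mM MgCl2, at 1 mg/mL protein, was treated with 10 μM compound for 30 min and heated in aliquots for 3 min across 48°C-58°C. After pooling, adjustment to 0.5% NP-40 at 4°C and centrifugation at 21,000xg for 90 min, supernatant protein was measured by TMTpro 16plex LC-MS/MS with channel sums equalised.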

barasertib = compound: CCN(CCCOc1ccc2c(Nc3cc(CC(=O)Nc4cccc(F)c4)[nH]n3)ncnc2c1)CCOP(=O)(O)O [barasertib]
In short: as §1

[1] = compound: CC[C@@H]1C(=O)N(C)c2cnc(Nc3ccc(C(=O)NC4CCN(C)CC4)cc3OC)nc2N1C1CCCC1
In short: as §1

defactinib = compound: CNC(=O)c1ccc(Nc2ncc(C(F)(F)F)c(NCc3nccnc3N(C)S(C)(=O)=O)n2)cc1 [defactinib]
In short: as §1

encorafenib = compound: COC(=O)N[C@@H](C)CNc1nccc(-c2cn(C(C)C)nc2-c2cc(Cl)cc(NS(C)(=O)=O)c2F)n1 [encorafenib]
In short: as §1

[2] = compound: COC(=O)[C@H](CCSC)NC(=O)C1=C(C=C(C=C1)NC[C@H](CS)N)C2=CC=CC=C2
In short: as §1

[3] = compound: CCCS(=O)(=O)Nc1ccc(F)c(C(=O)c2c[nH]c3ncc(Cl)cc23)c1F
In short: as §1

volasertib = compound: CC[C@@H]1C(=O)N(C)c2cnc(Nc3ccc(C(=O)N[C@H]4CC[C@H](N5CCN(CC6CC6)CC5)CC4)cc3OC)nc2N1C(C)C [volasertib]
In short: as §1

[4] = compound: CCn1c(C(=O)N(C2CC2)C2CC2)cc2c3c(ncn3C)c(Nc3cc(C)n(C)n3)nc21
In short: as §1

[5] = compound: CCn1cc(-c2ccnc3[nH]c(-c4cccc(CN(C)C)c4)cc23)c(-c2ccc(NC(=O)N(C)C)cc2)n1
In short: as §1

[6] = compound: CN1CCC(CNc2ccc3ncc(-c4cccc(OC(F)(F)F)c4)n3n2)CC1
In short: as §1

sotrastaurin = compound: CN1CCN(c2nc(C3=C(c4c[nH]c5ccccc45)C(=O)NC3=O)c3ccccc3n2)CC1 [sotrastaurin]
In short: as §1

alvocidib = compound: CN1CC[C@H](c2c(O)cc(O)c3c(=O)cc(-c4ccccc4Cl)oc23)[C@H](O)C1 [alvocidib]
In short: as §1

Tubastatin A = compound: CN1CCc2c(c3ccccc3n2Cc2ccc(C(=O)NO)cc2)C1 [Tubastatin A]
In short: as §1

[7] = compound: CNC(=O)C1=CC=CC=C1NC2=NC(=NC=C2Cl)NC3=C(C=C(C=C3)N4CCOCC4)OC
In short: as §1

alisertib = compound: COc1cc(Nc2ncc3c(n2)-c2ccc(Cl)cc2C(c2c(F)cccc2OC)=NC3)ccc1C(=O)O [alisertib]
In short: as §1

[8] = compound: COc1cc2nc(-c3cc(F)ccc3O)nc(N[C@@H]3CNC[C@H]3C(C)(C)O)c2cc1OC
In short: as §1

gefitinib = compound: COc1cc2ncnc(Nc3ccc(F)c(Cl)c3)c2cc1OCCCN1CCOCC1 [gefitinib]
In short: as §1

saracatinib = compound: CN1CCN(CCOc2cc(OC3CCOCC3)c3c(Nc4c(Cl)ccc5c4OCO5)ncnc3c2)CC1 [saracatinib]
In short: as §1

[9] = compound: CNc1nc(-c2ccc3c(N)n[nH]c3c2)cc(N2C[C@@H](C(=O)NC3CCCCC3)CC[C@H]2C)n1
In short: as §1

Measured: log2 fold change

ZNF460 (UniProt Q14592)
inactive: vemurafenib -0.024 | barasertib 0.065 | [1] -0.028 | defactinib -0.129 | encorafenib 0.092 | [2] -0.023

ZNF654, A0A1B0GWA0
inactive: [3] -0.056 | barasertib 0.159 | volasertib -0.061 | [4] -0.071 | [5] -0.119 | [6] -0.034 | sotrastaurin -0.025 | alvocidib 0.018 | Tubastatin A 0.034 | [7] 0.054 | alisertib -0.047 | [8] 0.048 | gefitinib 0.111

ZNF595 (UniProt Q8IYB9)
inactive: vemurafenib 0.024 | [1] -0.038 | [4] 0.158 | [5] -0.25 | [6] -0.04 | sotrastaurin 0.062 | alvocidib 0.247 | Tubastatin A -0.274 | defactinib 0.005 | encorafenib -0.024 | [2] -0.027

ZNF101 (UniProt Q8IZC7)
inactive: [3] 0.063 | volasertib -0.068 | [4] 0.003 | saracatinib -0.024 | sotrastaurin 0.095 | Tubastatin A -0.045 | [7] -0.03 | [9] 0.033 | [8] 0

2 entries drawn at random from those above, as already listed:
ZNF460 (UniProt Q14592)
inactive: vemurafenib -0.024 | barasertib 0.065 | [1] -0.028 | defactinib -0.129 | encorafenib 0.092 | [2] -0.023

ZNF654, A0A1B0GWA0
inactive: [3] -0.056 | barasertib 0.159 | volasertib -0.061 | [4] -0.071 | [5] -0.119 | [6] -0.034 | sotrastaurin -0.025 | alvocidib 0.018 | Tubastatin A 0.034 | [7] 0.054 | alisertib -0.047 | [8] 0.048 | gefitinib 0.111

The list goes on:

ZNF74 isoform 5 (UniProt Q16587)
inactive: [3] 0.157 | barasertib 0.124 | [1] 0.229 | volasertib 0.143 | [4] -0.139 | [5] 0.029 | [6] 0.065 | saracatinib -0.2 | alvocidib -0.015 | Tubastatin A -0.328 | [7] -0.087 | [9] 0.016 | encorafenib -0.145 | [2] 0.018 | alisertib -0.082 | [8] 0.012 | gefitinib -0.208

ZNF692 isoform 5 (UniProt Q9BU19)
inactive: vemurafenib 0.037 | saracatinib -0.039 | defactinib -0.028 | [9] -0.192

ZNF346 (UniProt Q9UL40)
inactive: [3] 0.007 | barasertib 0.013 | [1] 0.029 | volasertib -0.047 | [4] -0.018 | [5] 0.017 | [6] -0.051 | saracatinib 0.001 | sotrastaurin 0.011 | alvocidib 0.05 | Tubastatin A 0.036 | [7] -0.009 | [9] -0.029 | encorafenib -0.006 | [2] 0.062 | alisertib -0.03 | [8] 0.019 | gefitinib 0.046

ZNF445 (UniProt P59923)
inactive: vemurafenib -0.019 | barasertib 0.254 | [4] -0.123 | saracatinib -0.101 | Tubastatin A 0.055 | [7] 0.334 | defactinib 0.091 | [9] -0.038

ZNF525 (UniProt J3KR51)
inactive: vemurafenib 0.105 | barasertib 0.033 | [7] -0.022 | defactinib -0.13

ZNF669 (UniProt Q96BR6)
inactive: [3] -0.157 | barasertib 0.134 | volasertib -0.107 | [4] 0.039 | [5] -0.111 | [6] -0.005 | saracatinib -0.061 | sotrastaurin -0.165 | alvocidib 0.117 | Tubastatin A 0.009 | [7] -0.024 | [9] -0.162 | alisertib -0.11 | [8] -0.1 | gefitinib 0.004

ZNF417 (UniProt Q8TAU3)
inactive: barasertib -0.08

ZNF771 (UniProt Q7L3S4)
inactive: [3] -0.09 | barasertib -0.077 | volasertib -0.081 | [5] 0.006 | [6] -0.028 | alvocidib -0.03 | [7] 0.075 | [8] -0.007

ZNF708 (UniProt P17019)
inactive: vemurafenib -0.175 | [1] -0.081 | defactinib 0.288 | encorafenib -0.029 | [2] 0.072

ZNF280B (UniProt Q86YH2)
inactive: vemurafenib -0.061 | barasertib -0.046 | [5] 0.176 | [6] 0.047 | sotrastaurin 0.013 | alvocidib -0.065 | [7] -0.023 | defactinib -0.066 | alisertib -0.006 | gefitinib 0.091

ZNF48 (UniProt Q96MX3)
inactive: [3] -0.024 | [1] 0 | volasertib 0.013 | [5] -0.102 | [6] 0.072 | alvocidib 0.053 | encorafenib 0.08 | [2] -0.196 | [8] 0.007
